Data as given in PubChem BioAssay AID504791 (Drosophila RNAi Screening Center, 2011).
In all, the deposit lists about 23,000 reagents; below is a random part of those with a known target gene and a result. In the full data, 199 (0.86%) were called active. 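Plate-scaled ratios behind the calls are not deposited; printed light signals are raw; many rows marked increased or decreased are still called inactive.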 A number with no mark means an inactive call. The numbers tell different reagents against one gene apart. The record does not give: the direction of the score.

- Aim: 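Genes of the fly required for silencing by miRNA, siRNA or endo-siRNA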 (primary screen)
- Cell system: Drosophila S2-derived reporter cells
- Knock-down reagent: long dsRNA against Drosophila genes, about 150-250 ng dsRNA per well (siRNA assay); about 80-120 ng (miRNA assay)
- Time to read-out: about 5 days (siRNA assay); about 4 days (miRNA assay)
- Challenge: copper sulfate induction of reporters: 25 µM (siRNA assay); 200 mM stated (miRNA assay), 1-2 days before reading
- Read-out: 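Per-well ratio of Renilla over firefly light, expressed relative to that plate's average ratio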
- Hit rule: 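a well was a first-pass pick when its plate-scaled ratio rose above 1.5 (siRNA assay) or 1.6 (miRNA assay), or dropped below 0.6; a gene counted only if two separate dsRNAs agreed on retest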

target	dsRNA no.	miRNA reporter change	stable assay Renilla, run 1 (luminescence)	stable assay firefly, run 1 (luminescence)
beat-Vc	1		4292	3.87e5
beat-Vc	2		6171	4.37e5
G6P	1		6243	4.48e5
CG12662	1		6459	3.55e5
CG18577	1		5668	4.75e5
nvd	1		8923	5.53e5
CG32847	1		3748	3.71e5
Obp57c	1		6211	3.55e5
Ilp4	1		6923	3.27e5
CG11425	1		6998	4.34e5
Cyp4d1	1		5779	2.71e5
Cyp4d1	2		7227	3.74e5
CG10920	1		5964	3.47e5
CG8097	1		5783	4.35e5
insc	1		6902	3.81e5
CG34197 (retired record)	1		7019	5.27e5
spin	1		4663	3.91e5
spin	2		9771	6.41e5
CG7432	1		9078	3.57e5
Qsox2	1		9643	5.02e5

In a second layout: results already given
CG34197 (retired record)
- stable assay Renilla, run 1 (luminescence): 7019
- stable assay firefly, run 1 (luminescence): 5.27e5

spin #1
- stable assay Renilla, run 1 (luminescence): 4663
- stable assay firefly, run 1 (luminescence): 3.91e5

More entries follow.
target	dsRNA no.	miRNA reporter change	stable assay Renilla, run 1 (luminescence)	stable assay firefly, run 1 (luminescence)
Eig71Ei	1		7056	3.70e5
nudC	1	reporter ratio raised past the hit cutoff (active)	6767	2.56e5
nudC	2		7867	3.64e5
Lgr4	1		7120	6.37e5
Lgr4	2		5510	4.48e5
Lgr4	3		5579	4.27e5
CG30087	1		9231	4.99e5
CG16995	1		8289	4.65e5
l(2)k09022	1		11739	3.53e5
E2f2	1		11799	6.59e5
CG15650	1		6635	3.16e5
betaTub85D	1		6774	3.59e5
CG32579	1		4735	3.78e5
l(3)72Dn	1		8547	3.90e5
